Measured values published in PMC12040169 (PLOS Biology, 2025).
The other results are listed elsewhere or left out.

The compounds below were run on T1, CTL2-GFP (C. trachomatis L2/434/Bu, GFP-expressing). Settings: bulk GFP, single well; 28.5 h, 10 µM; inhibitor.
T1 construct: L2/434/Bu, GFP-expressing
Design: species or system HeLa; Intracellular C. trachomatis growth in HeLa cells, bulk GFP fluorescence relative to DMSO

| SMILES | % of control remaining |
| --- | --- |
| Cc1ccc2c(c1)CC(=O)NC21CCN(Cc2cccc(Br)c2)CC1 [CBK039392] | 118.76% |
| O=C(Nc1ccc2oc(-c3cccnc3)nc2c1)c1sc2cc(Cl)ccc2c1Cl [CBK267876] | 131.67% |
| O=C(c1ccccc1)c1ccc2n1CCC2C(=O)N1CCN(c2ccccc2)CC1 (stereo not shown) [CBK300536] | 94.6451% |
| O=C(N/N=C/c1ccccn1)c1n[nH]c2c1CCCC2 [CBK262882] | 100% |
| OCCCNC(c1ccccc1)c1ccc(O)cc1 (stereo not shown) [CBK266329] | 134.863% |
| COc1ccc(Cl)cc1NC(=O)CCCn1cnc([N+](=O)[O-])n1 [CBK268882] | 148.139% |
| COCCn1c(SCc2cn3cc(Br)ccc3n2)nc(C)c1C [CBK305704] | 103.723% |
| Cc1cc(C)c2c(OCC(=O)Nc3nc(C(N)=O)cs3)nn(C)c2n1 [CBK305530] | 139.717% |
| CCn1cc(C2CN(S(=O)(=O)c3ccccc3OC(F)F)CCO2)cn1 (stereo not shown) [CBK304234] | 125.46% |
| CC(C)[C@@H](Cn1nnc2ccccc21)NC(=O)c1ccco1 [CBK282335] | 87.9979% |
| COc1ccc(N2C(=O)CC(N3CCN(c4ccc(C(=O)c5cccnc5)cc4)CC3)C2=O)cc1 (stereo not shown) [CBK268924] | 145.73% |
| CCc1cc2c3c(c(=O)oc2cc1OCc1cc(C(=O)O)oc1C)CCCC3 [CBK264402] | 140.887% |
| O=C(CC1(O)C(=O)Nc2ccccc21)CC1(O)C(=O)Nc2ccccc21 (stereo not shown) [CBK263705] | 100% |
| CCN(Cc1cccnc1)C(CC1CCCCC1)c1ccccc1 (stereo not shown) [CBK061673] | 93.2977% |
| CC(Cc1cccs1)NC(=O)c1cc2c([nH]c1=O)CCCCC2 (stereo not shown) [CBK282523] | 98.8205% |
| CN(C)CCCNC(=O)c1cc2cc(Cl)cc(Cl)c2oc1=O [CBK269132C] | 129.465% |
| COc1ccc(CN2C(=S)N(c3ccccc3)[C@H]3[C@@H]2[C@H]2OC(=O)[C@@H]3C[C@H]2O)cc1 [CBK288937] | 113.461% |
| O=C(NCc1ccc(Cl)c(Cl)c1)c1cncc(-c2ccc(C(=O)N3CCOCC3)cc2)c1 [CBK158612] | 58.8733% |
| Cc1cc(CSc2cccc(F)c2)no1 [CBK002916] | 113.459% |
| COc1ccccc1-c1ccc(CC2(C(=O)NCc3ccc(F)cc3)CCOCC2)cc1 [CBK286518] | 92.4312% |
| Cc1n[nH]c(O)c1C(c1ccc(Br)o1)c1c(C)n[nH]c1O [CBK026150] | 108.406% |
| CN1CCN(CC(CC(=O)Nc2ccccc2)C(=O)O)CC1 (stereo not shown) [CBK286746] | 137.089% |
| COc1ccc(-c2nnc(SCC(=O)Nc3cc(C(C)(C)C)no3)n2C2CCCCC2)cc1OC [CBK295131] | 136.752% |
| O=C(Nc1nc2ccccc2[nH]1)NC1CCCCC1 [CBK288210] | 128.213% |
| COc1cccc(-c2cc(C(=O)N3CCC(C)CC3)n[nH]2)c1 [CBK288109] | 140.963% |
| Cc1ccc(C(=O)O)cc1NC(=O)C(=O)NCC(c1ccccc1)N(C)C (stereo not shown) [CBK286777] | 102.992% |
| CC(C)C(=O)N1CCC[C@@H]2NC(=O)c3ccccc3OCC/C=C/C[C@@H]21 [CBK292064] | 137.783% |

Part of the list above, tab-delimited.
SMILES	% of control remaining
O=C(N/N=C/c1ccccn1)c1n[nH]c2c1CCCC2 [CBK262882]	100%
COc1ccc(N2C(=O)CC(N3CCN(c4ccc(C(=O)c5cccnc5)cc4)CC3)C2=O)cc1 (stereo not shown) [CBK268924]	145.73%
O=C(CC1(O)C(=O)Nc2ccccc21)CC1(O)C(=O)Nc2ccccc21 (stereo not shown) [CBK263705]	100%
O=C(NCc1ccc(Cl)c(Cl)c1)c1cncc(-c2ccc(C(=O)N3CCOCC3)cc2)c1 [CBK158612]	58.8733%
O=C(Nc1nc2ccccc2[nH]1)NC1CCCCC1 [CBK288210]	128.213%

(more compounds)

| SMILES | % of control remaining |
| --- | --- |
| C=CCOc1cccc(CNc2nn[nH]n2)c1 [CBK267618] | 80.2692% |
| COc1ccc(/N=C(/Nc2cccc(C(F)(F)F)c2)SC)cc1 [CBK018896I] | 79.7421% |
| CN(C)c1cccc(-c2cncc(NCc3ccco3)n2)c1 [CBK065555] | 117.751% |
| Cc1cc(C)n2c(SCC(=O)O)nnc2n1 [CBK027406] | 107.576% |
| COc1cc(/C=C2\N=C(c3cccs3)OC2=O)ccc1OCc1ccc(Cl)cc1 [CBK263176] | 136.988% |
| CCCCN(C)c1c(CC)nc2ccc(C(=O)Nc3ccc(OC)c(OC)c3)cn12 [CBK145445] | 98.7795% |
| c1ccc(-c2nc(-c3ccncc3)[nH]c2-c2ccccc2)cc1 [CBK291155] | 123.422% |
| Cc1nn2c(=O)cc(C(=O)O)[nH]c2c1-c1ccccc1 [CBK287129] | 149.691% |
| c1ccc(CCCN2CCN(C3CCN(Cc4ccccc4)CC3)CC2)cc1 [CBK263457] | 100% |
| CC(C)(C)C(=O)N[C@H]1C[C@@H](Cc2cc(CO)on2)C1(C)C [CBK289260] | 110.213% |
| COc1cccc(NC(=O)CN(c2cccc(C(C)=O)c2)S(C)(=O)=O)c1 [CBK267502] | 117.12% |
| O=C1N=C(NC2CC3CCC2C3)SC12CCC2 (stereo not shown) [CBK073933] | 208.296% |
| N#Cc1nc(-c2ccco2)oc1N1CCN(C(=O)c2cc3c(s2)CCCCC3)CC1 [CBK240763] | 155.827% |
| CC(=O)N(C)c1nc(-c2cccc(N(C)C)c2)ccc1C(=O)NC1CCS(=O)(=O)C1 (stereo not shown) [CBK076590] | 117.902% |
| Cc1cccnc1C(NC(=O)C1CCN(CCOc2ccccc2)CC1)c1ccc(F)cc1 (stereo not shown) [CBK147892] | 181.992% |
| O=C(N/N=C/c1c[nH]c2ccccc12)c1cc(-c2ccc3ccccc3c2)n[nH]1 [CBK262885] | 107.904% |
| CCn1c(=O)oc2cc(NC(=O)NCCCc3csc(N)n3)ccc21 [CBK307633] | 123.214% |
| CCN(CC)C(=O)C1CCCN(C(=O)NCc2cnc(C)cn2)C1 (stereo not shown) [CBK156122] | 100.554% |
| O=C([C@@H]1Cc2[nH]cnc2CN1Cc1cc2ccccc2o1)N1CCOCC1 [CBK288977] | 134.228% |
| Cc1oc(C(=O)Nc2ccc(C(=O)O)cc2)cc1COc1ccccc1 [CBK263273] | 110.09% |
| CCCC(=O)Nc1ccc(C(=O)N2CCN(C)CC2)cc1 [CBK304337] | 129.804% |
| CCOc1ccc(Cl)cc1CNc1nnnn1CC [CBK288128] | 126.438% |
| COC(=O)c1ccc(/C=N/NC(=O)CCc2c(C)n[nH]c2C)cc1 [CBK262904] | 85.7111% |
| CCCC(=O)N1CCC(c2nc(C3CCCC3)no2)C1 (stereo not shown) [CBK285457] | 82.1199% |
| O=C(Nc1ccc(N2CCCCC2)c(F)c1)C1CC(=O)N(C2CC2)C1 (stereo not shown) [CBK281387] | 87.6912% |
| CCOC(=O)CN1CCC(Oc2nccnc2OCc2cc(C)on2)CC1 [CBK082960T] | 142.684% |
| CCCCOc1ccc(NC(=O)Nc2cc3cccnc3c(Br)n2)cc1 [CBK063291] | 83.1601% |

| SMILES | % of control remaining |
| --- | --- |
| Cc1ccc(C(=O)C2CCN(S(=O)(=O)c3ccc(Cl)c(Cl)c3)CC2)cc1 [CBK019294] | 126.619% |
| CC1(C)[C@H](Cc2cc(CO)on2)C[C@@H]1N(Cc1ccncc1)Cc1ccncc1 [CBK289233] | 167.056% |
| CS(=O)(=O)NC1CCN(C2CCc3c(F)cc(F)cc32)C1 (stereo not shown) [CBK305101] | 103.201% |
| CCN(CC)S(=O)(=O)c1ccc(C(=O)NCc2ccc(OC)cc2)cc1 [CBK305844] | 132.974% |
| NC(=O)c1sc2cc(C(F)(F)F)cnc2c1-c1cccs1 [CBK089891] | 82.9909% |
| OC(CNCc1ccc2c(c1)OCO2)COc1ccc(SC(F)(F)F)cc1 (stereo not shown) [CBK074691] | 99.343% |
| COC(=O)c1cc(CN2CCCN(S(=O)(=O)c3ccc(C(=O)c4ccccc4)cc3)CC2)cn1C [CBK062770] | 112.919% |
| O=C(c1cccs1)N1CCOC(Cn2ccnc2)C1 (stereo not shown) [CBK282256] | 119.985% |
| Cc1c(Cl)cccc1NC(=O)c1cnc2scc(C)n2c1=O [CBK287463] | 108.759% |
| CC(=O)N1C[C@@H](N(C)C)[C@H](c2cn(C)c3ccccc23)C1 [CBK285007] | 114.426% |
| CN1CCN(CC(=O)Nc2cc(N3CCOCC3)ccc2[N+](=O)[O-])CC1 [CBK047475] | 99.3858% |
| O=C(O)c1cnc(Cl)c(Br)c1 [CBK026874] | 94.5226% |
| Cc1nnc(NC(=O)C2CCN(C(=O)c3cccc(F)c3)CC2)s1 [CBK307588] | 103.905% |
| O=[N+]([O-])c1ccc(OCCCNCCO)cc1 [CBK262244] | 103.654% |
| O=C1Nc2ccc(-c3ccccc3F)cc2C(=O)N2CCN(C(=O)C3CCNCC3)C[C@H]12 [CBK289592] | 154.832% |
| CCCC(=O)NCC(C)c1nsc(NS(=O)(=O)c2cccc(Cl)c2C)n1 (stereo not shown) [CBK200053] | 93.8622% |
| O=C(O)c1cccc(Nc2nc(Nc3ccccc3)nc(N3CCCC3)n2)c1 [CBK286863] | 109.13% |
| COc1ccc2c(c1)nc1n2CCC1OC(C)=O (stereo not shown) [CBK115379] | 123.305% |
| Cc1cc(C)n(-c2ccccc2O)n1 [CBK026493] | 120.617% |
| OCCOc1ccc(Cl)c2cccnc12 [CBK000620] | 139.059% |
| CC1CCN(CC(O)c2ccc3c(c2)CCN3C(=O)C2CC2)CC1 (stereo not shown) [CBK282927] | 95.0258% |
| CC(=O)Nc1ccc(N2CCN(CCO)CC2)cc1OCCCOc1ccccc1 [CBK074317T] | 70.7793% |
| CCN(CCC(F)(F)F)C(=O)Cc1csc(NC(=O)c2ccoc2C)n1 [CBK305729] | 123.982% |
| CCNC(=O)N1CCC(Oc2cc(C)ccc2F)(C(=O)O)CC1 [CBK307147] | 121.576% |
| COc1cccc(OCC2CCCN(C(=O)CCc3cnn(C)c3)C2)c1 (stereo not shown) [CBK306931] | 143.571% |

Look-ups from the list:
% of control remaining, `CS(=O)(=O)NC1CCN(C2CCc3c(F)cc(F)cc32)C1` (stereo not shown) [CBK305101] is entered as 103.201%
% of control remaining, `NC(=O)c1sc2cc(C(F)(F)F)cnc2c1-c1cccs1` [CBK089891] is entered as 82.9909%
